# Source: the supplement of paper PMC12819154, “High-throughput peptide-centric local stability assay extends protein–ligand identification to membrane proteins, tissues and bacteria” (Nature Structural & Molecular Biology, 2025)
# Amino acid sequences for entries named in this document (tags omitted). A change or cut given only in a name is not applied to a line headed by its entry.
# UniProt Q9EPE9: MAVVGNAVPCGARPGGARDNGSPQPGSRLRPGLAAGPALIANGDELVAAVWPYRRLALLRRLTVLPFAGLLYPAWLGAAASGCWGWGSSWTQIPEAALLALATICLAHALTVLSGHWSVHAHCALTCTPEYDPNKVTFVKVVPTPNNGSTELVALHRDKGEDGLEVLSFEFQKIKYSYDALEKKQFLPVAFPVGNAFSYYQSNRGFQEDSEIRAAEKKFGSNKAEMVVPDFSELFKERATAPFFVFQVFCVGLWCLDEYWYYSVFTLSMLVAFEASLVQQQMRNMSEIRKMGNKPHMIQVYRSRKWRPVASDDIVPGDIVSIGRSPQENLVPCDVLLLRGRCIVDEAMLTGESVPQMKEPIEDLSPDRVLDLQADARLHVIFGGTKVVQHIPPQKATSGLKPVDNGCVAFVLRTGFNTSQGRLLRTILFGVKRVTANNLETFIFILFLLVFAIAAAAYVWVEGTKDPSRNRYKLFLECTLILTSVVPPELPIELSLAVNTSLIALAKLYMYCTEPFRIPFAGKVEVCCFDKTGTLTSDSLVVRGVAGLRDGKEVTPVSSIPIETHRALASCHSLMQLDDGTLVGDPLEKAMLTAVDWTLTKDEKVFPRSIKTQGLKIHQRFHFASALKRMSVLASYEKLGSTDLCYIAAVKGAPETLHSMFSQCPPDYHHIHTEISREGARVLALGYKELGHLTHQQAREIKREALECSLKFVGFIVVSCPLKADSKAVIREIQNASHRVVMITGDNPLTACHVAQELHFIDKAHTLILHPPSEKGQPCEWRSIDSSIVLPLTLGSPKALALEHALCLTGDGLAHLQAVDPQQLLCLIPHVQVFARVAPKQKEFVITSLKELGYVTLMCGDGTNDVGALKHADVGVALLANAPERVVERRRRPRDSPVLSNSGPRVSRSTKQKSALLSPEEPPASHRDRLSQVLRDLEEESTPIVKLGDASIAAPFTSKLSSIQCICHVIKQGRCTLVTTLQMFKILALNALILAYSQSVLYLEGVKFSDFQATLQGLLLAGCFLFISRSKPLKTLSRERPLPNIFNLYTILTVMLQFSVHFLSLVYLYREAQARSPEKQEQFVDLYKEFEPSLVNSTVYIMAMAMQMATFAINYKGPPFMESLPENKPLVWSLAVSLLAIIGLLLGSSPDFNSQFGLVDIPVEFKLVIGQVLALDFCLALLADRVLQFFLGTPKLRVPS
# UniProt Q9JHI9: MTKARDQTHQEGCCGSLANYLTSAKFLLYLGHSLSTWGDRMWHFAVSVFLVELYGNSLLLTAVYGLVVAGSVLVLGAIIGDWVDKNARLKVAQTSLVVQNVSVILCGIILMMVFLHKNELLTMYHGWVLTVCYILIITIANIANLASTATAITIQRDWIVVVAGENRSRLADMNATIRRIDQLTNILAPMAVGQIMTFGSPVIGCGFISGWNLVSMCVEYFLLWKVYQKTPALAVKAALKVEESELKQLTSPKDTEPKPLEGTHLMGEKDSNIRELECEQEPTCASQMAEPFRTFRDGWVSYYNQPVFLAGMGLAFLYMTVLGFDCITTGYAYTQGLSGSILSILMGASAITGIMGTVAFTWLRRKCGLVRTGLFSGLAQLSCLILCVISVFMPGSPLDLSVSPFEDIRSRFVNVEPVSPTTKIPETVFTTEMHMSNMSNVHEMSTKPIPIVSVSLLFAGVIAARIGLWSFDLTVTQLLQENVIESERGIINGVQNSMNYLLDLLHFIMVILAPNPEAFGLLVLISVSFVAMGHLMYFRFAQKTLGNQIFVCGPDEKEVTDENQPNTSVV
# UniProt Q9JJJ3: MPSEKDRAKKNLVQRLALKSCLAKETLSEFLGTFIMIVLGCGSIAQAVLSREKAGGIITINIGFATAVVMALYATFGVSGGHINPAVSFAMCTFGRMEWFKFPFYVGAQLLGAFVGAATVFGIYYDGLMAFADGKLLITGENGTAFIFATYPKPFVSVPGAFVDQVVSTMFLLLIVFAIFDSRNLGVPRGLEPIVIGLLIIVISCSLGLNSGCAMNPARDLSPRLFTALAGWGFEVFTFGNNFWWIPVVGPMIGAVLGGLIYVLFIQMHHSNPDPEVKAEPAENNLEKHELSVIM
# UniProt Q9JI90: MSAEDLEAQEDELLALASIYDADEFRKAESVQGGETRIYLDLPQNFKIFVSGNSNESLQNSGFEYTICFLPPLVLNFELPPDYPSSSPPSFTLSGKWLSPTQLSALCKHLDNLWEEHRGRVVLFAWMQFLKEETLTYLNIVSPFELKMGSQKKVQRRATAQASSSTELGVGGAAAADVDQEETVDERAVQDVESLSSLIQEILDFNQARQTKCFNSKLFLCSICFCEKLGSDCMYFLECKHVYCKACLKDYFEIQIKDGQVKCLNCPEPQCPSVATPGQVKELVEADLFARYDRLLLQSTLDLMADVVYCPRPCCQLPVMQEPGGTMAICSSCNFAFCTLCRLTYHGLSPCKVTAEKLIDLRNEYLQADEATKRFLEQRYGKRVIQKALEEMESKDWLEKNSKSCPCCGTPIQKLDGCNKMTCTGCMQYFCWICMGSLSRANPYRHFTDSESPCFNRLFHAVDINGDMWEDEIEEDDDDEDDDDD
# UniProt Q9QUH0: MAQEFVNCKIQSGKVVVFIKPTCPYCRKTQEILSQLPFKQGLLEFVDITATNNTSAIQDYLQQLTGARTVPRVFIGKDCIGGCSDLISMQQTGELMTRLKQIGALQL
# UniProt Q9QXC1: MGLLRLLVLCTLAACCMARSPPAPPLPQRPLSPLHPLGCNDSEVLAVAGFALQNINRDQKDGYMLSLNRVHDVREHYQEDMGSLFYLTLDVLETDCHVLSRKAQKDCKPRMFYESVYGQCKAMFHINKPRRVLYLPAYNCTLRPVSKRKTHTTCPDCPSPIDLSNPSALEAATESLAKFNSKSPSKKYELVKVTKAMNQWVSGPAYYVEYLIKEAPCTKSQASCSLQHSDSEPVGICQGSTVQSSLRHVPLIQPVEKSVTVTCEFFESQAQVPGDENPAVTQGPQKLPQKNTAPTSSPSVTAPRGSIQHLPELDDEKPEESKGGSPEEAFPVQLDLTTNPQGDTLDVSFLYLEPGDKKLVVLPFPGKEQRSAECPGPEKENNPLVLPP
# UniProt Q9DCZ1: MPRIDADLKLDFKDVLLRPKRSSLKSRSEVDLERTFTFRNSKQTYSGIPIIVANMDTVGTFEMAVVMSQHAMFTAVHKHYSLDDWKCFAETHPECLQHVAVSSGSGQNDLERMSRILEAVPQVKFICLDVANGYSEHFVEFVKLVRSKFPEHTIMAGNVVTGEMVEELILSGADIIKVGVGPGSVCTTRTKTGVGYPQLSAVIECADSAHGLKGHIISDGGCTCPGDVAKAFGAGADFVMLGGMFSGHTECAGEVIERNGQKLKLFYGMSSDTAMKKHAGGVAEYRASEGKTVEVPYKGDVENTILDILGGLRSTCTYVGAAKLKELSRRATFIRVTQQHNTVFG
# UniProt Q9DCU9: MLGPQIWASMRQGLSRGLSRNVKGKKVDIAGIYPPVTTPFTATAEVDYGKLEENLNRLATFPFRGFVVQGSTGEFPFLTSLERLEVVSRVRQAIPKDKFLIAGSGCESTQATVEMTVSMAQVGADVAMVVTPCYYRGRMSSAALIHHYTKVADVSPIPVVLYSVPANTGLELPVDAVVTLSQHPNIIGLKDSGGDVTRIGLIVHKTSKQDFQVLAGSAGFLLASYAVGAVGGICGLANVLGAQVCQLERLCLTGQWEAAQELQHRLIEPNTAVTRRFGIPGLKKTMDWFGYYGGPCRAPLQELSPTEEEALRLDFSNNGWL
# UniProt Q9EPU4: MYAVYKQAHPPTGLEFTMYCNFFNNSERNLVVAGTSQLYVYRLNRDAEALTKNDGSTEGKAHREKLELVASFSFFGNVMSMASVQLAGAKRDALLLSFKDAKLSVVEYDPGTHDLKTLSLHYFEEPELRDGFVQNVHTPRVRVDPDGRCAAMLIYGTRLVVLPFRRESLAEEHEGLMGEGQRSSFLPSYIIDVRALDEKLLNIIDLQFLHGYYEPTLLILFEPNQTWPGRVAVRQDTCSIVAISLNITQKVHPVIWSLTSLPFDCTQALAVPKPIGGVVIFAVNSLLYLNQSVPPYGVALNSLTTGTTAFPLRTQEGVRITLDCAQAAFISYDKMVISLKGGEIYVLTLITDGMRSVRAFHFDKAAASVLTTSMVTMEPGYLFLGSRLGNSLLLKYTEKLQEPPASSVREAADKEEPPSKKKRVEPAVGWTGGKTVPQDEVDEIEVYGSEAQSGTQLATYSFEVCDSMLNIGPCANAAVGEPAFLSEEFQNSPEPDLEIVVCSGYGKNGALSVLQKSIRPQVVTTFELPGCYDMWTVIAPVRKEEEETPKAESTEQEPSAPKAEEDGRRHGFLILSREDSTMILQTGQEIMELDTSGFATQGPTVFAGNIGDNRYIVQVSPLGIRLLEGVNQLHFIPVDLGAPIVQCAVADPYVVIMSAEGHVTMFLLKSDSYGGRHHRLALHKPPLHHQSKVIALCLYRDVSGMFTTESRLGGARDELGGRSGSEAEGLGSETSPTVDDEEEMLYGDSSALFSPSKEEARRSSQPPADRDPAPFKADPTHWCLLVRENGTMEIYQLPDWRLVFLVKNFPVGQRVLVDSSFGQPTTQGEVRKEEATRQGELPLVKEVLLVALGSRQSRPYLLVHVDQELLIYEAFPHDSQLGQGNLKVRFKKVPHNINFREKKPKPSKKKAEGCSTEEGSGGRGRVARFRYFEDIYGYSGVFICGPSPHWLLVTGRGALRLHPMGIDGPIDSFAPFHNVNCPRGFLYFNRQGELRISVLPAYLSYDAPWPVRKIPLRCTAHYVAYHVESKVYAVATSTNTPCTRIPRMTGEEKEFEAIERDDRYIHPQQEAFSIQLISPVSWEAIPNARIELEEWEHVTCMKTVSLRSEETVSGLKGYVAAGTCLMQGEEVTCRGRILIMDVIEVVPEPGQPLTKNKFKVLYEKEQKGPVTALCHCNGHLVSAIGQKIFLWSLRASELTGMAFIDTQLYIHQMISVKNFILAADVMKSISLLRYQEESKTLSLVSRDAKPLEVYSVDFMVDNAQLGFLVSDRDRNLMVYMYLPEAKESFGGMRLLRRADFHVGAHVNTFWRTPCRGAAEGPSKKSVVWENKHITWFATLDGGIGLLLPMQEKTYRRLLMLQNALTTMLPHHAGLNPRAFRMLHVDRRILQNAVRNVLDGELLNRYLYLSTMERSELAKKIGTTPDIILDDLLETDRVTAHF
# UniProt Q9ET26: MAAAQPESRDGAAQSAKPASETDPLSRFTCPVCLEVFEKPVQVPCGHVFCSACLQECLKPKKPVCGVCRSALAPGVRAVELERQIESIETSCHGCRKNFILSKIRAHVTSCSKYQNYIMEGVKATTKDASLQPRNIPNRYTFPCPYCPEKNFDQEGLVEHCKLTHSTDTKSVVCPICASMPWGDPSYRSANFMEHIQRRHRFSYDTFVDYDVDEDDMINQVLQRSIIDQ
# UniProt Q9EP69: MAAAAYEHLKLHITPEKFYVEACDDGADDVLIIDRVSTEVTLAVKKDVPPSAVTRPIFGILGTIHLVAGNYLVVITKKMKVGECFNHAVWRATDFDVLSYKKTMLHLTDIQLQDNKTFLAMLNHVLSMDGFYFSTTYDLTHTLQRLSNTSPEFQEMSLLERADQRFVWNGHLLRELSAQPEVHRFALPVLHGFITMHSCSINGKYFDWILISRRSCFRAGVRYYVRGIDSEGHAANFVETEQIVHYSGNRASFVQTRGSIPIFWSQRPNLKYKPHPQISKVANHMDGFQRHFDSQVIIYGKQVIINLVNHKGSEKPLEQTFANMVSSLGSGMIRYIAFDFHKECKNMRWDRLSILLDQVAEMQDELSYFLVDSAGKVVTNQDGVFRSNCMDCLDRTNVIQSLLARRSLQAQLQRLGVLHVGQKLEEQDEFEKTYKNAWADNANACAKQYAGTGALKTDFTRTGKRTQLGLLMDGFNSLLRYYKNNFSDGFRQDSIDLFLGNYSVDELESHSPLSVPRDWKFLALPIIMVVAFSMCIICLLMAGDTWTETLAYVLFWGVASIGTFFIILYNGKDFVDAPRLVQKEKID
# UniProt Q9JHH9: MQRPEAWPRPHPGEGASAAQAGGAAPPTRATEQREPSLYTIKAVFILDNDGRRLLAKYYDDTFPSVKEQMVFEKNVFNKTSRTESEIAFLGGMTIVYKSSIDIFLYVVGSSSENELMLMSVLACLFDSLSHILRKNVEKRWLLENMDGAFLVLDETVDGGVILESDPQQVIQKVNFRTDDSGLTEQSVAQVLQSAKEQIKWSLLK
# UniProt Q9JHL1: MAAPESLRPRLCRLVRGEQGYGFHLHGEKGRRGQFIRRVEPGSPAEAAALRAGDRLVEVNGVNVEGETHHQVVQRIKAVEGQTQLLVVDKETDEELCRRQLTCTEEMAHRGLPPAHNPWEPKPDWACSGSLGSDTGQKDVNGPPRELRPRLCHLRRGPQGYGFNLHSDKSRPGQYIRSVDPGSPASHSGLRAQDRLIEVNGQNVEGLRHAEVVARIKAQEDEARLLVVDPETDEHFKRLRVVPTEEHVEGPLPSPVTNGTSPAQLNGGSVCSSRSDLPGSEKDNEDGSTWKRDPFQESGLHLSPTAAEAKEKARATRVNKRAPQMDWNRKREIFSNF
# This is one part of the list. Small differences around the control level are noise.
# Compound: CN[C@@H]1C[C@H]2O[C@@](C)([C@@H]1OC)n1c3ccccc3c3c4c(c5c6ccccc6n2c5c31)C(=O)NC4 [staurosporine]
# Test: log2 fold change of pooled soluble protein (PISA), ligand vs vehicle (log2 ratio); higher = more thermally stabilized
# Details: ligand concentration: 20 uM; assay format: PISA pool 52.9/55.5/58.6 C
row,Target,log2 fold change of pooled soluble protein
1,UniProt Q9EPE9,-0.29
2,UniProt Q9JHI9,0.0368
3,UniProt Q9JJJ3,-0.0949
4,UniProt Q9JI90,0.0268
5,UniProt Q9EST1,-0.346
6,UniProt Q9JKV1,0.0776
7,UniProt Q9JJ89,-0.12
8,UniProt Q9JLV1,0.0283
9,UniProt Q9DCK3,0.116
10,UniProt Q9EPJ9,0.133
11,UniProt Q9QUH0,0.016
12,UniProt Q9QXK3,-0.014
13,UniProt Q9DCI3,-0.122
14,UniProt Q9JIF7,0.0654
15,UniProt Q9JHZ2,-0.195
16,UniProt Q9JHU2,0.00806
17,UniProt Q9QVP9,-0.00464
18,UniProt Q9JMH6,-0.0882
19,UniProt Q9QXC1,-0.0818

# In another format: results already given.
row	Target	log2 fold change of pooled soluble protein
7	UniProt Q9JJ89	-0.12
8	UniProt Q9JLV1	0.0283

# Carrying on.

row,Target,log2 fold change of pooled soluble protein
1,UniProt Q9JK23,0.178
2,UniProt Q9QYG0,-0.00616
3,UniProt Q9JLQ0,0.0107
4,UniProt Q9DCZ1,0.11
5,UniProt Q9ESC8,-0.237
6,UniProt Q9DC69,-0.106
7,UniProt Q9DCU9,0.0298
8,UniProt Q9EPU4,-0.235
9,UniProt Q9ET26,0.0939
10,UniProt Q9DCN2,-0.0676
11,UniProt Q9EP69,0.107
12,UniProt Q9ESU6,0.0238
13,UniProt Q9QWR8,0.064
14,UniProt Q9JHH9,0.097
15,UniProt Q9JHL1,0.0317
16,UniProt Q9EPR2,-0.347
17,UniProt Q9ET30,-0.333
18,UniProt Q9ESP1,0.0698
